{"source": "patent US20130096282A1", "binders": {"B1": {"name": "chimeric mAb LST-004 (antibody, V domains shown)", "VH": "EVMLVESGGGLVKPGGSLKLSCAASGFTFSTFTMSWVRQTPEKRLECVATINGGGGNTYYPDSVKGRFTISRDNAKNNLYLQMSSLRSEDTAFYFCSRLYGIYAMDYWGQGTSVTVSS", "VL": "DIVMTQSHIFMSTSVGDRVSITCKASQDVGSAVAWYQQKPGQSPKVLIYWTSTRHTGVPDRFAGSGSGTEFTLTISNVQSEDLADYFCQQYSSYPLTFGAGTKLELKR"}, "B2": {"name": "mouse monoclonal antibody LST-002 (antibody, V domains shown)", "VH": "EVMLVESGGGLVKPGGSLKLSCAASGFTFSTFTMSWVRQTPEKRLECVATINGGGGNTYYPDSVKGRFTISRDNAKNNLYLQMSSLRSEDTAFYFCSRLYGIYAMDYWGQGTSVTVSS", "VL": "DIVMTQSHIFMSTSVGDRVSITCKASQDVGSAVAWYQQKPGQSPKVLIYWTSTRHTGVPDRFAGSGSGTEFTLTISNVQSEDLADYFCQQYSSYPLTFGAGTKLELKR"}, "B3": {"name": "mouse monoclonal antibody LST-001 (antibody, V domains shown)", "VH": "DVQLQESGPGLVKPSQSLSLPCSVTGYSITSGYYWNWIRQFPGNKLEWMGYIRYDGNNNYNPSLKNRISITHDTSKNQFFLKLNYVTTEDTATYYCARGLQFYFDSWGQGTTLTVSS", "VL": "DIVMSQSPSSLAVSGGEKVTMSCKSSQSLLNGSYQKHTLAWYQQKPGQSPKLLIYWASTRESGVPDRFTGSGSGTDFTLTISSVKAEDLAVYYCQQYYSYPWTFGGGTKLEIKR"}, "B4": {"name": "fully human recombinant mAb LST-008 (antibody, V domains shown)", "VH": "QVRLVQSGTEVKKPGASVRVSCKASGYTFSNYYMYWVRQAPGQGLEWMAMINPSGGSTRYAQKFQGRVTMTRDTSTSTVYMELSSLRSEDTAVYYCARADSGSYFGYWGQGTLVTVSS", "VL": "DIQLTQSPSFLSASVGDRVPITCRASQGISTHLAWYQQKPGKAPKLLIYAASTLQSGVPSRFSGSGSGTEFTLTISSLQPEDSATYYCQQLKSYPLTFGGGTKVEIKR"}, "B5": {"name": "human monoclonal IgM antibody LST-007 (antibody, V domains shown)", "VH": "QVRLVQSGTEVKKPGASVRVSCKASGYTFSNYYMYWVRQAPGQGLEWMAMINPSGGSTRYAQKFQGRVTMTRDTSTSTVYMELSSLRSEDTAVYYCARADSGSYFGYWGQGTLVTVSS", "VL": "DIQLTQSPSFLSASVGDRVPITCRASQGISTHLAWYQQKPGKAPKLLIYAASTLQSGVPSRFSGSGSGTEFTLTISSLQPEDSATYYCQQLKSYPLTFGGGTKVEIKR"}}, "key": {"[1]": {"biological_target": "flagellin type A of P. aeruginosa strain ATCC 27853 (Pseudomonas aeruginosa)", "test": "ELISA on formaldehyde-fixed whole bacteria"}, "[2]": {"biological_target": "flagellin type A of P. aeruginosa strain ATCC 27853 (Pseudomonas aeruginosa)", "test": "ELISA on formaldehyde-fixed whole bacteria, mAb at 1 nM"}, "[3]": {"biological_target": "flagellin type B of multi-drug resistant clinical P. aeruginosa isolate Ka02 (Pseudomonas aeruginosa)", "test": "ELISA on formaldehyde-fixed whole bacteria, mAb at 1 nM"}, "[4]": {"biological_target": "flagellin type B of multi-drug resistant clinical P. aeruginosa isolate Ka02 (Pseudomonas aeruginosa)", "test": "ELISA on wells holding an equal mixture of formaldehyde-fixed PA27853 (type A) and Ka02 (type B) bacteria, mAb at 1 nM; the target within the mixture follows the filing's text, not the sheet"}, "[5]": {"biological_target": "flagellin type B of multi-drug resistant P. aeruginosa strain PA21 (Pseudomonas aeruginosa)", "test": "immunoblot of bacterial lysates (earlier result referred to in the legend)"}, "[6]": {"biological_target": "flagellin type A of multi-drug resistant P. aeruginosa strain PA1 (Pseudomonas aeruginosa)", "test": "immunoblot of bacterial lysates"}, "[7]": {"biological_target": "flagellin type A of multi-drug resistant P. aeruginosa strain PA141 (Pseudomonas aeruginosa)", "test": "immunoblot of bacterial lysates"}, "[8]": {"biological_target": "flagellin type A of multi-drug resistant P. aeruginosa strain PA409 (Pseudomonas aeruginosa)", "test": "immunoblot of bacterial lysates"}, "[9]": {"biological_target": "flagellin type A of multi-drug resistant P. aeruginosa strain PA49 (Pseudomonas aeruginosa)", "test": "immunoblot of bacterial lysates"}, "[10]": {"biological_target": "flagellin type B of multi-drug resistant P. aeruginosa strain PA21 (Pseudomonas aeruginosa)", "test": "western blot of P. aeruginosa lysates"}, "[11]": {"biological_target": "flagellin type A of multi-drug resistant P. aeruginosa strain PA1 (Pseudomonas aeruginosa)", "test": "western blot of bacterial lysates, mAb at 10 µg/ml"}, "[12]": {"biological_target": "flagellin type A of multi-drug resistant P. aeruginosa strain PA141 (Pseudomonas aeruginosa)", "test": "western blot of bacterial lysates, mAb at 10 µg/ml"}, "[13]": {"biological_target": "flagellin type A of multi-drug resistant P. aeruginosa strain PA409 (Pseudomonas aeruginosa)", "test": "western blot of bacterial lysates, mAb at 10 µg/ml"}, "[14]": {"biological_target": "flagellin type A of multi-drug resistant P. aeruginosa strain PA49 (Pseudomonas aeruginosa)", "test": "western blot of bacterial lysates, mAb at 10 µg/ml"}, "[15]": {"biological_target": "flagellin type B of multi-drug resistant P. aeruginosa strain PA21 (Pseudomonas aeruginosa)", "test": "immunoblot of P. aeruginosa lysates probed with LST-001, anti-mouse Fc peroxidase detection"}, "[16]": {"biological_target": "flagellin type A of multi-drug resistant P. aeruginosa strain PA141 (Pseudomonas aeruginosa)", "test": "immunoblot of P. aeruginosa lysates probed with LST-001 at 10 µg/ml, anti-mouse Fc peroxidase detection"}, "[17]": {"biological_target": "flagellin type A of multi-drug resistant P. aeruginosa strain PA49 (Pseudomonas aeruginosa)", "test": "immunoblot of P. aeruginosa lysates probed with LST-001 at 10 µg/ml, anti-mouse Fc peroxidase detection"}, "[18]": {"biological_target": "flagellin type B of clinical P. aeruginosa isolate Ka01 (Pseudomonas aeruginosa)", "test": "ELISA on formaldehyde-fixed whole bacteria, mAb at 0.5 µg/ml"}, "[19]": {"biological_target": "flagellin type B of clinical P. aeruginosa isolate Ka03 (Pseudomonas aeruginosa)", "test": "ELISA on formaldehyde-fixed whole bacteria, mAb at 0.5 µg/ml"}, "[20]": {"biological_target": "flagellin type B of clinical P. aeruginosa isolate Ka04 (Pseudomonas aeruginosa)", "test": "ELISA on formaldehyde-fixed whole bacteria, mAb at 0.5 µg/ml"}, "[21]": {"biological_target": "flagellin type B of commercial P. aeruginosa strain 25619 (Pseudomonas aeruginosa)", "test": "ELISA on formaldehyde-fixed whole bacteria, mAb at 0.5 µg/ml"}, "[22]": {"biological_target": "flagellin type B of commercial P. aeruginosa strain NCTC 10662 (Pseudomonas aeruginosa)", "test": "ELISA on formaldehyde-fixed whole bacteria, mAb at 0.5 µg/ml"}, "[23]": {"biological_target": "flagellin type B of multi-drug resistant clinical P. aeruginosa isolate Ka02 (Pseudomonas aeruginosa)", "test": "ELISA on formaldehyde-fixed whole bacteria, mAb at 0.5 µg/ml"}, "[24]": {"biological_target": "flagellin type B of clinical P. aeruginosa isolate Ka01 (Pseudomonas aeruginosa)", "test": "ELISA on formaldehyde-fixed whole bacteria, single concentration"}, "[25]": {"biological_target": "flagellin type B of clinical P. aeruginosa isolate Ka03 (Pseudomonas aeruginosa)", "test": "ELISA on formaldehyde-fixed whole bacteria, single concentration"}, "[26]": {"biological_target": "flagellin type B of clinical P. aeruginosa isolate Ka04 (Pseudomonas aeruginosa)", "test": "ELISA on formaldehyde-fixed whole bacteria, single concentration"}, "[27]": {"biological_target": "flagellin type B of commercial P. aeruginosa strain 25619 (Pseudomonas aeruginosa)", "test": "ELISA on formaldehyde-fixed whole bacteria, single concentration"}, "[28]": {"biological_target": "flagellin type B of commercial P. aeruginosa strain NCTC 10662 (Pseudomonas aeruginosa)", "test": "ELISA on formaldehyde-fixed whole bacteria, single concentration"}, "[29]": {"biological_target": "flagellin type B of multi-drug resistant clinical P. aeruginosa isolate Ka02 (Pseudomonas aeruginosa)", "test": "ELISA on formaldehyde-fixed whole bacteria, single concentration"}, "[30]": {"biological_target": "flagellin type B of clinical P. aeruginosa isolate Ka01 (Pseudomonas aeruginosa)", "test": "ELISA on whole fixed bacteria (FIG. 9)"}, "[31]": {"biological_target": "flagellin type B of clinical P. aeruginosa isolate Ka03 (Pseudomonas aeruginosa)", "test": "ELISA on whole fixed bacteria (FIG. 9)"}, "[32]": {"biological_target": "flagellin type B of clinical P. aeruginosa isolate Ka04 (Pseudomonas aeruginosa)", "test": "ELISA on whole fixed bacteria (FIG. 9)"}, "[33]": {"biological_target": "flagellin type B of commercial P. aeruginosa strain 25619 (Pseudomonas aeruginosa)", "test": "ELISA on whole fixed bacteria (FIG. 9)"}, "[34]": {"biological_target": "flagellin type B of commercial P. aeruginosa strain NCTC 10662 (Pseudomonas aeruginosa)", "test": "ELISA on whole fixed bacteria (FIG. 9)"}, "[35]": {"biological_target": "flagellin type B of multi-drug resistant clinical P. aeruginosa isolate Ka02 (Pseudomonas aeruginosa)", "test": "ELISA on whole fixed bacteria (FIG. 9)"}, "[36]": {"biological_target": "flagellin type A of P. aeruginosa strain ATCC 27853 (Pseudomonas aeruginosa)", "test": "ELISA on whole immobilized bacteria, LST-007 supernatant"}, "[37]": {"biological_target": "flagellin type A of P. aeruginosa strain ATCC 27853 (Pseudomonas aeruginosa)", "test": "ELISA on formaldehyde-fixed whole bacteria, hybridoma supernatant"}, "[38]": {"biological_target": "flagellin type B of clinical P. aeruginosa isolate Ka01 (Pseudomonas aeruginosa)", "test": "ELISA on formaldehyde-fixed whole bacteria, hybridoma supernatant"}, "[39]": {"biological_target": "flagellin type B of clinical P. aeruginosa isolate Ka03 (Pseudomonas aeruginosa)", "test": "ELISA on formaldehyde-fixed whole bacteria, hybridoma supernatant"}, "[40]": {"biological_target": "flagellin type B of clinical P. aeruginosa isolate Ka04 (Pseudomonas aeruginosa)", "test": "ELISA on formaldehyde-fixed whole bacteria, hybridoma supernatant"}, "[41]": {"biological_target": "flagellin type B of commercial P. aeruginosa strain 25619 (Pseudomonas aeruginosa)", "test": "ELISA on formaldehyde-fixed whole bacteria, hybridoma supernatant"}, "[42]": {"biological_target": "flagellin type B of commercial P. aeruginosa strain NCTC 10662 (Pseudomonas aeruginosa)", "test": "ELISA on formaldehyde-fixed whole bacteria, hybridoma supernatant"}, "[43]": {"biological_target": "flagellin type B of multi-drug resistant clinical P. aeruginosa isolate Ka02 (Pseudomonas aeruginosa)", "test": "ELISA on formaldehyde-fixed whole bacteria, hybridoma supernatant"}}, "note": "Results are given in words; binding and its absence hold for the method and conditions named. For some assays here: A result given as binding can be weak or reduced; the word gives no strength.", "data": [{"binder": "B1", "values": [{"measurement": "binding", "setting": "[1]", "result": "no binding (tested: 1 nM)"}, {"measurement": "binding", "setting": "[2]", "result": "no binding (tested: 1 nM)"}, {"measurement": "binding", "setting": "[3]", "result": "binds"}, {"measurement": "binding", "setting": "[4]", "result": "binds"}]}, {"binder": "B2", "values": [{"measurement": "binding", "setting": "[5]", "result": "binds"}]}, {"binder": "B3", "values": [{"measurement": "binding", "setting": "[6]", "result": "binds"}, {"measurement": "binding", "setting": "[7]", "result": "binds"}, {"measurement": "binding", "setting": "[8]", "result": "binds"}, {"measurement": "binding", "setting": "[9]", "result": "binds"}, {"measurement": "binding", "setting": "[10]", "result": "no binding (tested: 10 µg/ml)"}, {"measurement": "binding", "setting": "[11]", "result": "binds"}, {"measurement": "binding", "setting": "[12]", "result": "binds"}, {"measurement": "binding", "setting": "[13]", "result": "binds"}, {"measurement": "binding", "setting": "[14]", "result": "binds"}, {"measurement": "binding", "setting": "[15]", "result": "no binding (tested: 10 µg/ml)"}, {"measurement": "binding", "setting": "[16]", "result": "binds"}, {"measurement": "binding", "setting": "[17]", "result": "binds"}]}, {"binder": "B4", "values": [{"measurement": "binding", "setting": "[1]", "result": "no binding (tested: 0.5 µg/ml)"}, {"measurement": "binding", "setting": "[18]", "result": "binds"}, {"measurement": "binding", "setting": "[19]", "result": "binds"}, {"measurement": "binding", "setting": "[20]", "result": "binds"}, {"measurement": "binding", "setting": "[21]", "result": "binds"}, {"measurement": "binding", "setting": "[22]", "result": "binds"}, {"measurement": "binding", "setting": "[23]", "result": "binds"}, {"measurement": "binding", "setting": "[24]", "result": "binds"}, {"measurement": "binding", "setting": "[25]", "result": "binds"}, {"measurement": "binding", "setting": "[26]", "result": "binds"}, {"measurement": "binding", "setting": "[27]", "result": "binds"}, {"measurement": "binding", "setting": "[28]", "result": "binds"}, {"measurement": "binding", "setting": "[29]", "result": "binds"}]}, {"binder": "B5", "values": [{"measurement": "binding", "setting": "[30]", "result": "binds"}, {"measurement": "binding", "setting": "[31]", "result": "binds"}, {"measurement": "binding", "setting": "[32]", "result": "binds"}, {"measurement": "binding", "setting": "[33]", "result": "binds"}, {"measurement": "binding", "setting": "[34]", "result": "binds"}, {"measurement": "binding", "setting": "[35]", "result": "binds"}, {"measurement": "binding", "setting": "[36]", "result": "no binding"}, {"measurement": "binding", "setting": "[37]", "result": "no binding (tested: supernatant, concentration not given)"}, {"measurement": "binding", "setting": "[38]", "result": "binds"}, {"measurement": "binding", "setting": "[39]", "result": "binds"}, {"measurement": "binding", "setting": "[40]", "result": "binds"}, {"measurement": "binding", "setting": "[41]", "result": "binds"}, {"measurement": "binding", "setting": "[42]", "result": "binds"}, {"measurement": "binding", "setting": "[43]", "result": "binds"}]}]}
